Source: publication PMC8080764
These are yes or no findings as the source states them, for the method shown. In cells and extracts the contact can be indirect. Binding can be weak; no strength is given. Tags and fused reporters may be left off the sequences shown.

Target: T1, 3xFlag-KDM2B (pCMV-3xFlag-KDM2B) (UniProt Q8NHM5)
T1 sequence: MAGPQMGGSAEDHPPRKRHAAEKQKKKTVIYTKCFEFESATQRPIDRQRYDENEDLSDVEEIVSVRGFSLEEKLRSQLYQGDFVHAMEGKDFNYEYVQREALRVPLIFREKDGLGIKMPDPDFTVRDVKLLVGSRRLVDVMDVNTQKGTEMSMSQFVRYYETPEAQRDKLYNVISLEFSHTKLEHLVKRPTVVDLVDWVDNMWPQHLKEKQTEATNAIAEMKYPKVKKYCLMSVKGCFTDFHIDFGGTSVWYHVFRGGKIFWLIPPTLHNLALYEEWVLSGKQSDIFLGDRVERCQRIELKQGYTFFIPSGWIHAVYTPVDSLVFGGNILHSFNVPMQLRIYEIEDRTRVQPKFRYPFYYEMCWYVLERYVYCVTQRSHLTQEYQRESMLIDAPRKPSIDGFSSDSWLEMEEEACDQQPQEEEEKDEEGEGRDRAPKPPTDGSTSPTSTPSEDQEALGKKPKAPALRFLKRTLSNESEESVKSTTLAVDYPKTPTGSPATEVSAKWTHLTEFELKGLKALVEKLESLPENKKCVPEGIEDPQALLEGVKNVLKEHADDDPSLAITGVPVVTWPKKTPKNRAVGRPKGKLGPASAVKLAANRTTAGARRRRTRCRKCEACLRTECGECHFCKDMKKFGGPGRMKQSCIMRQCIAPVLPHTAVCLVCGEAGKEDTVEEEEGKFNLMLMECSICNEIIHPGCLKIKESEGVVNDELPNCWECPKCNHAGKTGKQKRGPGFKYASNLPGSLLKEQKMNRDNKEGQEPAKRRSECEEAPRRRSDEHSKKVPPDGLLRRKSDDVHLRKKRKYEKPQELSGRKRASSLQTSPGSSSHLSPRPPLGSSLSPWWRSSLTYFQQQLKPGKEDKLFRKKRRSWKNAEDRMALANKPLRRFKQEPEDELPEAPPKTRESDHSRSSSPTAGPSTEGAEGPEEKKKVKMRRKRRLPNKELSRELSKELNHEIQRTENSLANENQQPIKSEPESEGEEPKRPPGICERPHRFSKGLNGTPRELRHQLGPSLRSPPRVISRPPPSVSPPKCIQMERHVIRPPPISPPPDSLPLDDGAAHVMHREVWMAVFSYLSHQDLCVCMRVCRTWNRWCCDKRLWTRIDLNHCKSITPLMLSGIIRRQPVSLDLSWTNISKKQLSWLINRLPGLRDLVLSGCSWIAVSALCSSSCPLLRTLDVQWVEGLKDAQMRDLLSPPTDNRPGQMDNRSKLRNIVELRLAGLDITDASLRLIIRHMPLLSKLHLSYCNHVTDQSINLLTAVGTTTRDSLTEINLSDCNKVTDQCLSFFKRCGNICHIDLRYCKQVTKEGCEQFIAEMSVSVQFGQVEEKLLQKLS
Assay: co-IP; pCMV-3xFlag-KDM2B and pCGN-HA-SRF (full length or truncations) transfected into 293T cells (cell line of Fig. 3e not named); IP with anti-Flag (KDM2B), inverse IP by HA-SRF; 0.5% NP40 lysis buffer, overnight at 4 °C

SRF-AB (truncated SRF with the MADS-box) (domain or fragment)
binding: binds
